In article PMC10095060:
No constants are given. Whether binding was seen depends on the method and setting. For part of these data: In cells and extracts the contact can be indirect. Some results given as binding are weak or reduced against the parent protein; the word gives no strength.

Amino acid sequences for entries named in this document (tags omitted).
UniProt P93751: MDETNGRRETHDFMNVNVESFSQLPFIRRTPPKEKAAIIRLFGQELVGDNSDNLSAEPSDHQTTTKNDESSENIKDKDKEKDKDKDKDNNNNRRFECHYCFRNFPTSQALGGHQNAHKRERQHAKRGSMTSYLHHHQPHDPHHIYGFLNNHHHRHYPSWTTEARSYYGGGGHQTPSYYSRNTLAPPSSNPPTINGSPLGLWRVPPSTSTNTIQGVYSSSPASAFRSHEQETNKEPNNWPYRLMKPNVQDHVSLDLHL
UniProt Q9FG05: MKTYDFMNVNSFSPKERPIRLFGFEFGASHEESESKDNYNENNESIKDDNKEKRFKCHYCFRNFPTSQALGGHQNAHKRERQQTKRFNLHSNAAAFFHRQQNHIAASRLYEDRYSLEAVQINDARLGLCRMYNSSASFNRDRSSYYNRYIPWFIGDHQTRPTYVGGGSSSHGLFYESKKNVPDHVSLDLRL
UniProt Q84WI0: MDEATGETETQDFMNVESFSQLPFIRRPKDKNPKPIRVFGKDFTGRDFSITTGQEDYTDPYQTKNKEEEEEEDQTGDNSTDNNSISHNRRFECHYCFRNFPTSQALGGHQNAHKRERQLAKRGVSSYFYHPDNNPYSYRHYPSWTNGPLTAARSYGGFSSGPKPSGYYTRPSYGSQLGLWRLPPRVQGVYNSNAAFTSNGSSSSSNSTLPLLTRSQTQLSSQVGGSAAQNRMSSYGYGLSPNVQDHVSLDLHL
UniProt Q9LVG2: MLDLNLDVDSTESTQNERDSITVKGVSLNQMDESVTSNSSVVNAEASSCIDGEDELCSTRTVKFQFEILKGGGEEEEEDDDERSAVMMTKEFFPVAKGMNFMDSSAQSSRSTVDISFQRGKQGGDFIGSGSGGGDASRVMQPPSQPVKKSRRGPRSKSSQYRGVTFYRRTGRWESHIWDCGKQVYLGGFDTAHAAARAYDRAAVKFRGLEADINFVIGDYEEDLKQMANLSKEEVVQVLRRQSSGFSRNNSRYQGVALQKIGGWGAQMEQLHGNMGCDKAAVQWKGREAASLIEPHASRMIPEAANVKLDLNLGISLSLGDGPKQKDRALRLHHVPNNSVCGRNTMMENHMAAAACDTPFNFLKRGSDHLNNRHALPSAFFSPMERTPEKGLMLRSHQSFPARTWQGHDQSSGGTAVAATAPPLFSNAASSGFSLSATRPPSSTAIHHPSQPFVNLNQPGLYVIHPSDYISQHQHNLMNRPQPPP
UniProt Q9SK03: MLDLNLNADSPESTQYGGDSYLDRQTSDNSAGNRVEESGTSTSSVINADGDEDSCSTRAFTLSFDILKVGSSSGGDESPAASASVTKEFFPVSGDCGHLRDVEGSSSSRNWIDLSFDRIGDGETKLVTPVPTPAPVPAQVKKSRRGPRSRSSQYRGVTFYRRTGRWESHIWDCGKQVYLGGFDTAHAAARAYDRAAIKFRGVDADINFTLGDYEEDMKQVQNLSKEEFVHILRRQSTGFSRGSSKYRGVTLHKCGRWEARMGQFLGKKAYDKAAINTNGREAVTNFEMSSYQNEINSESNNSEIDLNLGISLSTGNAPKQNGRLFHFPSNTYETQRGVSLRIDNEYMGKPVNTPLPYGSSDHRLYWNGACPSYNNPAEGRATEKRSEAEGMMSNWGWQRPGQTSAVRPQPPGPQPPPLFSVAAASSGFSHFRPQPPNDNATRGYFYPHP

Assays:
[1] = target: ZFP8-nYFP (Arabidopsis thaliana) (UniProt P93751); experiment: split reporter; BiFC: cYFP and nYFP constructs (P2YC, P2YN) in Agrobacterium GV3101 mixed 1:1, infiltrated into Nicotiana benthamiana leaves, 23 °C in the dark for 24-72 h; YFP fluorescence in lower epidermal cells by fluorescence microscopy
[2] = target: GIS2-nYFP (Arabidopsis thaliana) (UniProt Q9FG05); experiment: as above
[3] = target: GIS-nYFP (Arabidopsis thaliana) (UniProt Q84WI0); experiment: as above
[4] = target: ZFP8-BD (zinc-finger protein 8 in pGBKT7) (Arabidopsis thaliana) (UniProt P93751); experiment: two-hybrid; pGADT7 (AD) and pGBKT7 (BD) constructs co-transformed into yeast AH109; selected on SD/-Leu/-Trp at 30 °C for 48 h in the dark, then growth on SD/-Ade/-His/-Leu/-Trp at 30 °C
[5] = target: GIS-BD (glabrous inflorescence stems in pGBKT7) (Arabidopsis thaliana) (UniProt Q84WI0); experiment: as above
[6] = target: GIS2-BD (GIS2 in pGBKT7) (Arabidopsis thaliana) (UniProt Q9FG05); experiment: as above

Measured: binding

TOE2-cYFP (from UniProt Q9LVG2 1-485)
binds: [1] | [2] | [3]

TOE1-cYFP (from UniProt Q9SK03 1-449)
binds: [1] | [2] | [3]

TOE1-AD (TARGET OF EARLY ACTIVATION TAGGED 1 in pGADT7) (from UniProt Q9SK03 1-449)
binds: [4] | [5] | [6]

TOE2-AD (TOE2 in pGADT7) (from UniProt Q9LVG2 1-485)
binds: [4] | [5] | [6]
